For 33 compounds, survivor count and T/C results are on record in PubChem BioAssay AID328 (DTP/NCI, 2004).

The list does not hold the whole screen: it gathers tests that were run many times, whatever their T/C, doses with no T/C, and many T/C values between a quarter and a half above the control. Further doses and runs are listed elsewhere. T/C: endpoint of the treated group in % of that of the vehicle group. Some entries give survivors of the animals treated and no T/C: the source files T/C as zero there, which appears to mark a toxic dose or a test without result, not a measured value. Some doses without a T/C left all or most animals alive at the check, yet need not have been tolerated: survival well below the control is almost never listed, so the zero probably covers shortened survival too. Counts of survivors are from the toxicity check (mostly the fifth day) where no day follows; animals may have died later. Schedules are NCI's codes, read here as Q, the interval in days (D) or hours (H), X, the number of doses. Some molecules as drawn cover several salts, stereoisomers or complexes of the source; a dose is that of the sample tested. Some entries hold several experiments; their values stand side by side, smallest first. Where survival is the endpoint, this PubChem deposit counts one and a half times the control or more as active, and values a quarter to a half above the control carry no call in these data; other NCI protocols may use other cut-offs. Some T/C values are followed by the survivors on the day toxicity was checked, most often the fifth; without a count, all were alive then.

The assay deals with BDF1 mice, P388 leukemia ip, median survival T/C. The assay can be described thus: NCI In Vivo Anticancer Drug Screen. Data for tumor model P388 Leukemia (intraperitoneal) in B6D2F1 (BDF1) mice. The settings on record: T/C endpoint: median survival time, higher T/C = longer survival. The essentials: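 In tumour-bearing mice, survival after compound treatment is set against the vehicle group and given as a quotient.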

[1] abbreviates: dose: 200.0 mg/kg/injection, schedule: Q01DX009 (ip), vehicle: saline.
Where [2] appears, read: dose: 400.0 mg/kg/injection, schedule: Q01DX009 (ip), vehicle: saline with Tween-80.
Setting [3] is: dose: 100.0 mg/kg/injection, schedule: Q04DX003 (ip), vehicle: saline with Tween-80.
[4] abbreviates: dose: 200.0 mg/kg/injection, schedule: Q04DX003 (ip), vehicle: saline with Tween-80.
The mark [5] stands for this setting: dose: 400.0 mg/kg/injection, schedule: Q04DX003 (ip), vehicle: saline with Tween-80.
The mark [6] stands for this setting: dose: 5.0 mg/kg/injection, schedule: Q01DX009 (ip), vehicle: Klucel (hydroxypropylcellulose) (HPC).
[7] abbreviates: dose: 12.5 mg/kg/injection, schedule: Q01DX009 (ip), vehicle: saline with Tween-80.
Where [8] appears, read: dose: 50.0 mg/kg/injection, schedule: Q01DX005 (ip), vehicle: saline with Tween-80.
The mark [9] stands for this setting: dose: 400.0 mg/kg/injection, schedule: Q01DX009 (ip), vehicle: Klucel (hydroxypropylcellulose) (HPC).
[10] abbreviates: dose: 50.0 mg/kg/injection, schedule: Q01DX009 (ip), vehicle: saline with Tween-80.
Setting [11] is: dose: 100.0 mg/kg/injection, schedule: Q01DX009 (ip), vehicle: saline with Tween-80.
Where [12] appears, read: dose: 200.0 mg/kg/injection, schedule: Q01DX009 (ip), vehicle: gum acacia.
Where [13] appears, read: dose: 100.0 mg/kg/injection, schedule: Q04DX003 (ip), vehicle: Klucel (hydroxypropylcellulose) (HPC).
Where [14] appears, read: dose: 50.0 mg/kg/injection, schedule: Q01DX009 (ip), vehicle: saline.
[15] abbreviates: dose: 50.0 mg/kg/injection, schedule: Q04DX003 (ip), vehicle: saline.
Where [16] appears, read: dose: 200.0 mg/kg/injection, schedule: Q01DX009 (ip), vehicle: saline with Tween-80.
[17] abbreviates: dose: 100.0 mg/kg/injection, schedule: Q01DX009 (ip), vehicle: saline.

With `CC1CCC2(C)CCC(C(C)C)C2(O)CC1` (stereo unspecified), the survivor count under setting [1] is 6 of 6.
As to `Cn1c(=O)c2c(nc(CCCCc3nc4c(c(=O)n(C)c(=O)n4C)n3C)n2C)n(C)c1=O`, the survivor count under setting [2] is on record as 6 of 6.
As for `COc1ccc2c(c1OC)CN(C)CCc1cc3c(cc1C(=O)C2)OCO3`, the survivor count runs as follows: (dose: 75.0 mg/kg/injection, schedule: Q01DX009 (ip), vehicle: saline with Tween-80) 5 of 6; (dose: 150.0 mg/kg/injection, schedule: Q01DX009 (ip), vehicle: saline with Tween-80) 3 of 6.
On to `CC=NC(C[S-])C(=O)O.CC=NC(C[S-])C(=O)O.[Fe+2]` (stereo unspecified), for which, under setting [2], the survivor count is 3 of 6 and 5 of 6.
`Clc1nc2nc(C(Cl)(Cl)Cl)[nH]c2nc1Cl`: the survivor count is reported as 2 of 6 (dose: 255.0 mg/kg/injection, schedule: Q04DX003 (ip), vehicle: Klucel (hydroxypropylcellulose) (HPC)) and 0 of 6 (dose: 385.0 mg/kg/injection, schedule: Q04DX003 (ip), vehicle: Klucel (hydroxypropylcellulose) (HPC)).
In the case of `O=C1Oc2ccccc2C1=O`, the survivor count under setting [1] is reported as 6 of 6.
Turning to `NC1(C(=O)O)CCCc2ccc(N(CCCl)CCCl)cc21` (stereo unspecified), the survivor count is, setting by setting: (dose: 37.5 mg/kg/injection, schedule: Q04DX003 (ip), vehicle: saline with Tween-80) 6 of 6; under setting [3], 4 of 6; under setting [4], 5 of 6; under setting [5], 1 of 6.
As for `COC(=O)c1c(C)cc(OC(=O)c2c(C)c(Cl)c(O)c(Cl)c2O)cc1O`, the survivor count is listed as 6 of 6 (dose: 1.25 mg/kg/injection, schedule: Q01DX009 (ip), vehicle: Klucel (hydroxypropylcellulose) (HPC)); 6 of 6 (dose: 2.5 mg/kg/injection, schedule: Q01DX009 (ip), vehicle: Klucel (hydroxypropylcellulose) (HPC)); 6 of 6 under setting [6]. For the same compound, under setting [6], the T/C was 126 % of control.
Turning to `O=C1c2ccccc2C(=O)C(Cl)C1Cl` (stereo unspecified), the survivor count under setting [7] is recorded as 0 of 6.
For the compound `O=C(CI)Nc1ccc(O)c2ccccc12`, the survivor count was 0 of 6 (dose: 25.0 mg/kg/injection, schedule: Q01DX009 (ip), vehicle: water); 0 of 6 (dose: 50.0 mg/kg/injection, schedule: Q04DX003 (ip), vehicle: water); 0 of 6 (dose: 100.0 mg/kg/injection, schedule: Q04DX003 (ip), vehicle: water).
With `O=C1CN(Cc2ccccc2)CC(=O)N2Cc3ccccc3CN12`, under setting [8], the survivor count is 5 of 5.
On to `C=C1C(=O)OC2C1C(OC(=O)/C(C)=C/C)CC(O)(CCl)C1C(OC(C)=O)C=C(C)C21O` (stereo unspecified), for which the T/C by setting is: (dose: 12.5 mg/kg/injection, schedule: Q01DX010 (ip), vehicle: saline) 133 % of control; (dose: 200.0 mg/kg/injection, schedule: Q01DX010 (ip), vehicle: saline) 144 % of control.
For `O=NN(CCCl)C(=O)Nc1cc2c3ccccc3ccc2c2ccccc12`, the T/C reads like this: (dose: 100.0 mg/kg/injection, schedule: Q01DX009 (ip), vehicle: Klucel (hydroxypropylcellulose) (HPC)) 137 % of control [5 of 6 alive]; (dose: 200.0 mg/kg/injection, schedule: Q01DX009 (ip), vehicle: Klucel (hydroxypropylcellulose) (HPC)) 132 % of control; under setting [9], 129 % of control [5 of 6 alive].
For `O=NN(CCBr)C(=O)NC1CCCCC1`, the T/C under setting [7] was 140 % of control; the T/C (dose: 25.0 mg/kg/injection, schedule: Q01DX009 (ip), vehicle: saline with Tween-80) is 145 % of control; the T/C under setting [10] was 125 and 127 % of control; the T/C under setting [11] was 130 and 133 % of control [5 of 6 alive]; the T/C under setting [12] was 130 % of control. Besides, the survivor count reads like this: under setting [12], 5 of 6; under setting [2], 3 of 6; under setting [5], 5 of 6.
As to `NC(=S)N/N=C/c1ncccc1F`, the survivor count reads like this: under setting [3], 2 of 6; under setting [4], 1 of 6; under setting [5], 0 of 6.
Turning to `Oc1ccc(C2CCCCC2)c(O)c1`, under setting [13], the survivor count was 6 of 6.
Take `CCOc1ccc([N+](=O)[O-])cc1CN(CC)CC`: the survivor count is given as 6 of 6 (dose: 20.0 mg/kg/injection, schedule: Q01DX009 (ip), vehicle: saline) and 1 of 6 (dose: 40.0 mg/kg/injection, schedule: Q01DX009 (ip), vehicle: saline).
`Cc1c(N)cccc1N`: the survivor count under setting [10] is listed as 0 of 6.
As for `Cc1ncc(-c2ccc([N+](=O)[O-])cc2)o1`, the survivor count was 5 of 5 (dose: 50.0 mg/kg/injection, schedule: Q04DX003 (ip), vehicle: Klucel (hydroxypropylcellulose) (HPC)) and 6 of 6 under setting [13].
In the case of `Cc1cccc(Br)[n+]1[O-]`, the survivor count is recorded as 6 of 6 under setting [14]; 6 of 6 under setting [15]; 6 of 6 (dose: 100.0 mg/kg/injection, schedule: Q01DX001 (ip), vehicle: saline).
On to `c1ccc2c(c1)[nH]c1c2c[n+]2c3c(cccc13)CCC2`, for which, under “dose: 12.5 mg/kg/injection, schedule: Q01DX009 (ip), vehicle: saline”, the T/C is 133 % of control.
On to `COc1cc(C=Nc2ccc(Cl)cc2)ccc1N(CCCl)CCCl`, for which, under setting [15], the T/C is 145 % of control. For the same compound, the survivor count is 6 of 6 (dose: 75.0 mg/kg/injection, schedule: Q04DX003 (ip), vehicle: other); 3 of 6 under setting [11]; 0 of 6 under setting [16]; 0 of 6 under setting [2].
Turning to `COc1c2c(cc3oc4ccccc4c(=O)c13)CCCC2=O`, the survivor count (dose: 100.0 mg/kg/injection, schedule: Q01DX005 (ip), vehicle: Klucel (hydroxypropylcellulose) (HPC)) was 5 of 5.
For `CNc1ccc2c(c1)C(=O)c1c(C)n(C)c3cccc-2c13`, the survivor count under setting [8] is 6 of 6.
Regarding `CC1=CCCC(C)(C)C1/C=C/C(C)=C/C(=O)O` (stereo unspecified), the survivor count under setting [9] is 6 of 6.
`NCC[Se]CC(N)C(=O)O` (stereo unspecified): the survivor count is recorded as 5 of 6 under setting [14], 0 of 6 under setting [17] and 0 of 6 under setting [1].
Turning to `NC(Cc1ccccc1Cl)C(=O)O` (stereo unspecified), the T/C reads like this: under setting [17], 138 % of control; under setting [1], 133 % of control.
For `C[Se]c1ncnc2c(C3OC(CO)C(O)C3O)[nH]nc12` (stereo unspecified), the survivor count runs as follows: (dose: 25.0 mg/kg/injection, schedule: Q01DX009 (ip), vehicle: saline) 4 of 6; under setting [15], 3 of 6.
With `CCCSCCCC(=O)O`, under setting [13], the survivor count was 6 of 6.
Consider `COc1ccc2c3c1OC1CC(O)C=CC31CCN(C)C2` (stereo unspecified), for which the survivor count (dose: 10.0 mg/kg/injection, schedule: Q01DX010 (ip), vehicle: carboxymethylcellulose (CMC)) is 2 of 6 and the survivor count (dose: 20.0 mg/kg/injection, schedule: Q01DX010 (ip), vehicle: carboxymethylcellulose (CMC)) is 0 of 6.
For the compound `NCC(O)CSc1ccc(Cl)c(Cl)c1` (stereo unspecified), the survivor count (dose: 200.0 mg/kg/injection, schedule: Q04DX002 (ip), vehicle: saline with Tween-80) was 3 of 6.
As for `CC(=O)[O][Pb]([O]C(C)=O)([c]1ccccc1)[c]1ccccc1`, the T/C under setting [11] is 148 % of control. The survivor count under setting [16] is 6 of 6 and the survivor count under setting [2] is reported as 5 of 6.
Turning to `Cc1ccc2c(/C=C/c3ccc(N(C)C)cc3)ccnc2c1C`, the T/C under setting [10] is 127 % of control. In addition, under setting [16], the survivor count is given as 6 of 6.
